{"sequences": {"note": "Sequences of proteins named here, by UniProt entry; tags and fusion partners are left off.", "UniProt Q12809, whole entry": "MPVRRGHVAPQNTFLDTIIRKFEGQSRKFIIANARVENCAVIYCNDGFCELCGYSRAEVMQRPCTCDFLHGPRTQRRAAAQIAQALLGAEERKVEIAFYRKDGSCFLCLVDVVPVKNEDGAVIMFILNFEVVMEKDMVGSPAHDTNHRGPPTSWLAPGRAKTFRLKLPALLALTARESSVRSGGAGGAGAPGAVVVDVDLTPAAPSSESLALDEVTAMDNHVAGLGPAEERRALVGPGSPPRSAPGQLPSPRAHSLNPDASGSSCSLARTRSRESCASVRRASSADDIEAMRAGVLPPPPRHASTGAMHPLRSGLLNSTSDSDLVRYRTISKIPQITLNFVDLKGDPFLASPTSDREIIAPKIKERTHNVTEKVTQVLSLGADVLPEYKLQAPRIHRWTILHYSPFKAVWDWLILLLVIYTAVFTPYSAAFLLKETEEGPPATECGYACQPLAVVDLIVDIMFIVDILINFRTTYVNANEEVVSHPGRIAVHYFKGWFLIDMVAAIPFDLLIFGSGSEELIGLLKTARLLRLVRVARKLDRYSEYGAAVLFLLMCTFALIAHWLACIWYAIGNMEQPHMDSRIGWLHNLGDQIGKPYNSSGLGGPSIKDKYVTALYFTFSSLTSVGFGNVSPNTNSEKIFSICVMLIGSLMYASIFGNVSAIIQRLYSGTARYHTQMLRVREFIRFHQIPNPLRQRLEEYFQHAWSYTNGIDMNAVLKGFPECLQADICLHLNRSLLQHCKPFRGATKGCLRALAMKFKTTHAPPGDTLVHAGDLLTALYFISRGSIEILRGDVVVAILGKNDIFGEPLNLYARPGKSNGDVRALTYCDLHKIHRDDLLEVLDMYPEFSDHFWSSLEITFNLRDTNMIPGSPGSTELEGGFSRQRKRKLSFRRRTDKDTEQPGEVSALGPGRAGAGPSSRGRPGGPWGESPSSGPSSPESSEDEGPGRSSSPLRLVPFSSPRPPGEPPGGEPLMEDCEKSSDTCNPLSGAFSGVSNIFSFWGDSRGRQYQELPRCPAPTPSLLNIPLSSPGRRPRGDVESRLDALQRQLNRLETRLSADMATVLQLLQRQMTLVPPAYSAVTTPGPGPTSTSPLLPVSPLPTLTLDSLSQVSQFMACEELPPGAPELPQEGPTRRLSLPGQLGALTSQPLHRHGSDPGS"}, "source": "patent US12202828B2", "about": "“Bicyclic heterocycle compounds and their uses in therapy” (ASTEX THERAPEUTICS LIMITED, priority 2013, dated 2025)", "biological_target": "hERG ion channel (Homo sapiens, UniProt Q12809)", "assay": "Population Patch Clamp (PPC) hERG assay in CHO K1 cells", "assay_type": "cell-based", "conditions": "@ 10 μM; tested form: 2HCl", "note": "For part of its entries the source gives two or more results. The other results are left out here. The source may hold further records. Values given together differ, and nothing given here explains why; some may be repeats, others may stem from another dose, organism or construct than stated."}
{"compound": "C[C@@H]1CN(CC(=O)N2CC(C)(C)c3ncc(Cc4ccc(F)cc4)cc32)[C@@H](CN2CCOC[C@H]2C)CN1", "values": [{"measurement": "hERG PPC (PI)", "value": "42% @ 10 (n = 2) and 38% @ 10 (n = 3)"}]}
